# Screening data, single-dose tests

The chains behind the UniProt entries cited, without tags or fusion partners.
UniProt P9WNZ1, whole entry: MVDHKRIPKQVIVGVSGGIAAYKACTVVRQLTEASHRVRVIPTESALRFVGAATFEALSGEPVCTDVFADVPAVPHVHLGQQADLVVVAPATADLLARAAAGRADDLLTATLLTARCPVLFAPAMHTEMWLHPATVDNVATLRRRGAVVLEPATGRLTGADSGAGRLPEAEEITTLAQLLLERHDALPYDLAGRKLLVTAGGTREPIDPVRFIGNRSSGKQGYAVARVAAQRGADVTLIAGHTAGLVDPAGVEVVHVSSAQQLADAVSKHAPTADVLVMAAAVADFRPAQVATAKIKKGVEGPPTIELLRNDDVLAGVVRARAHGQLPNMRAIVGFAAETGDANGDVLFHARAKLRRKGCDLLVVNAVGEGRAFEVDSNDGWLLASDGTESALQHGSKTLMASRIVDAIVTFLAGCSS
UniProt P9WFT3, whole entry: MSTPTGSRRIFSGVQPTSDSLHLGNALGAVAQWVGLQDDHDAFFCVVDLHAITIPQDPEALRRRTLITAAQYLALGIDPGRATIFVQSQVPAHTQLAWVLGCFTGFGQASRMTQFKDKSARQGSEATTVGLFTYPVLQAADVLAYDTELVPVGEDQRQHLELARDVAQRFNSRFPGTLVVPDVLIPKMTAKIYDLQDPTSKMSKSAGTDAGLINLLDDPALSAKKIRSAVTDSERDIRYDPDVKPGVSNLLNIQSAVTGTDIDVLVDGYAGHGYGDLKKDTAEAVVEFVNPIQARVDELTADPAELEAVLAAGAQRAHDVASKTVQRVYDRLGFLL

Measurements from “University of Dundee, Small-Polar-MMV Screening Library” (2021), ChEMBL document CHEMBL3988442.

Results are given as percent effect. The controls that fix the scale are not given in the record; negative values are as filed. This is an unselected part of the compounds tested. A dash means the value is not listed here; it may have been measured.

CoaBC: 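Enzyme assay of CoaBC with a phosphate dye (Biomol Green) read at 650 nm. Target: Coenzyme A biosynthesis protein CoaBC, Mycobacterium tuberculosis (UniProt P9WNZ1). Tested at 30 µM. Higher reads as stronger inhibition, judged from the few compounds that gave an IC50. Most strong results did not repeat in a second test. Of about 67,000 compounds tested this way, about 40 (0.06%) reached 50% or more in at least one test.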
MtTrpRS: 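Tryptophan-tRNA ligase, Mycobacterium tuberculosis (UniProt P9WFT3). Enzyme assay of tryptophanyl-tRNA synthetase; the read-out is not stated. Concentration: 10 µM. Higher most likely means stronger inhibition; the record gives no direction and few retests gave an IC50. About 65,000 compounds were tested under these conditions; 0.098% (about 64) showed 50% or more at least once.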

SMILES,CoaBC,MtTrpRS
CCn1cnc2c(cnn2-c2cccc(C)c2C)c1=O,-1.908,-1.039
Cc1cc(O)c(OCC(=O)/N=c2\[nH]c(C)c(C)s2)cn1,0.8861,3.254
O=C(NC1CCCC1)N1CCCC(c2nccn2Cc2ccncc2)C1 (stereo not given),-5.907,-3.033
CS(=O)(=O)c1ccccc1-n1cc(NC(=O)CC2C=CCC2)cn1 (stereo not given),6.488,2.855
c1cnc(N2CCOCC3(CN(Cc4ccsc4)CCO3)C2)nc1 (stereo not given),-10.42,-1.763
CCCc1cc(=O)n(CC(=O)NCCOC)c(-n2nc(C)cc2C)n1,0.6017,3.522
CCN(CC)S(=O)(=O)c1cc(Br)ccc1OC,1.401,4.397
CN1[C@H](CN2CCCC2)C[C@@H]2CN(C(=O)c3cnccn3)CC[C@@H]21,2.303,-
CN(C)c1cc(C2CCCN(S(=O)(=O)c3cn[nH]c3)C2)ccn1 (stereo not given),1.36,2.039
CCc1ccc(CN2CCN(CCOC)[C@@H]3CS(=O)(=O)C[C@@H]32)cc1,8.73,4.131
O=C(NC1CC1)c1cc2c(nc1O)CC(c1cccs1)CC2=O (stereo not given),0.2141,-3.65
COCCNC(=O)Cn1nc(C(C)C)c2cnn(C(C)(C)C)c2c1=O,-5.757,-2.067
Cc1nnc2n1CCN(C(=O)c1ccn(-c3cccc(F)c3)n1)C2,11.79,1.001
Cc1nc2c(c(=O)n1C)CN(C(=O)C1CCCN(C(N)=O)C1)C2 (stereo not given),15.4,5.998
O=C(CN1C=Nc2ccccc2S1(=O)=O)NCCc1cccs1,11.19,1.852
Cc1nn(C)c(C)c1-c1cc(-c2cnn(C)c2C2CC2)c(C#N)c(N)n1,4.943,4.719
CC(C)NC(=O)c1cnc(Sc2nccn2C)c(Cl)c1,-0.8065,-6.341
CS(=O)(=O)N1CCO[C@@H]2CN(C(=O)c3cccnc3)C[C@@H]2C1,-0.9756,-
COCCNC(=O)[C@H]1CN(Cc2cccs2)C[C@H]2OCC[C@@H]12,-3.329,-4.204
CCC[C@H]1CN(CCOC)C[C@@H]1NC(=O)Cn1cc(C)cn1,1.79,-0.7874
Cc1cccc(CN2C[C@@H]3CN(C(=O)c4conc4C)C[C@@H]3C2=O)c1,3.583,-0.8137
CCOCC(O)CN1CCN(C(=O)Cc2ccccc2Cl)CC1 (stereo not given),-0.7979,2.673
CNC(=O)NC(=O)CCSc1ccccc1Cl,-1.739,-5.615
CN1CCN(C(CNC(=O)CCn2cccn2)c2cccs2)CC1 (stereo not given),-31.25,-1.954
Cc1nnc2n1CCN(C(C(=O)N1CCCCC1)c1ccccc1)C2 (stereo not given),0.7895,-5.08
Nc1nccnc1C(=O)N1CC(OCc2cccc3ccccc23)C1,8.293,14.67
CCc1nccn1-c1cncc(C2CCCN2Cc2ccccc2)n1 (stereo not given),2.184,-
Cc1nnc(SCCC(=O)N(C)Cc2c(F)cccc2Cl)[nH]1,7.025,0.9726
O=C(c1ccc[nH]1)N1CCc2ncc(Cn3cccn3)n2CC1,1.576,-
COCCc1noc(-c2ccc(=O)[nH]c2)n1,2.133,-0.07886
NC(=O)CN(CC(=O)NCCc1c(F)cccc1F)C1CCCC1,6.617,0.7819
c1[nH]c(CC2CCCC2)nc1CN1CCCC2(CCOC2)C1 (stereo not given),-,-3.199
Cc1nc(CN2CCN(c3cncc(Cl)n3)CC2)no1,0.4959,8.223
Cc1ccc(N2CCC3(CC2)CC(OCC(=O)N(C)C)CO3)nn1 (stereo not given),-1.028,7.062
CCN1Cc2nc(OC)c(CNC(=O)C3CCS(=O)(=O)CC3)cc2C1=O,6.397,4.516
CC(=O)N1CCOC2(CCN(C(=O)c3cnoc3C)CC2)C1,-1.931,5.273
CN1[C@H](Cn2cncn2)C[C@@H]2CN(C3CCOCC3)CC[C@@H]21,-3.074,-7.502
CNc1nc(CS(=O)(=O)c2ccccc2)cs1,7.54,1.144
CCn1ccc2ccnc(CC3CN(C(=O)c4cnco4)C3)c21,10.96,-5.23
CCC(OC)C(=O)N1CCc2nc(NC)nc(C(=O)N3CCCC3)c2C1 (stereo not given),3.656,1.069
CC(C)N(CC(N)=O)CC(=O)NCCc1c(F)cccc1F,10.91,-3.569
CCC(Nc1nnnn1-c1ccccc1)C(=O)Nc1nc(C)cs1 (stereo not given),0.8403,-1.201
Cc1cc(C)n(CC(C)Nc2nc(C)nc3c2CCNC3)n1 (stereo not given),-2.751,-1.83
CCOC(=O)CCC(=O)N1CCC(Oc2ncccc2Cl)CC1,-2.326,0.6839
CCc1n[nH]c(NC(=O)c2ccc(Cl)cn2)c1Br,7.393,-4.368
O=C(CN1CCCC1CCCO)NCc1ccccn1 (stereo not given),-12.52,2.205
O=C(O)c1ccccc1CN1CCCC(Cc2ccn[nH]2)C1 (stereo not given),-0.4785,3.776
O=C(c1cnc(-c2cnccn2)s1)N1CCCC(n2cccn2)C1 (stereo not given),-0.3727,-3.455
COc1ccc(C2=CCN(C(=O)CN(CC(N)=O)C(C)C)CC2)cc1,2.887,-10.89
CC(C)(C)CN(CCC#N)C(=O)c1cccc(CC#N)c1,0.1258,-1.905
COCCC1COC2(CCN(C(=O)C3CCC3)CC2)C1 (stereo not given),3.055,-0.9017
CCCc1n[nH]c(C2CN(CCNS(=O)(=O)CC)CCO2)n1 (stereo not given),-4.178,-0.2924
Cc1cc2c(=O)n(CCSc3ncn[nH]3)cnc2s1,8.148,-0.7831
CS(=O)(=O)N1CCC(CSc2ccccc2)C1 (stereo not given),-,-1.135
O=C1CO[C@H]2CN(C3CCOCC3)C[C@H]2N1Cc1ccncc1,-4.636,0.5311
Cc1nc(C)n(C2CCCN(C(=O)c3ccc(O)nc3)C2)n1 (stereo not given),8.095,-3.387
COCCC(=O)NC1CCN(CC2(c3cccc(F)c3)CCCC2)CC1,-0.8653,-1.098
CCCc1noc(CS(=O)(=O)c2cccc(OC)c2)n1,5.992,-0.5202

The last 6 entries again:

For Cc1cc2c(=O)n(CCSc3ncn[nH]3)cnc2s1 the result was CoaBC: 8.148%; MtTrpRS: -0.7831%.
For CS(=O)(=O)N1CCC(CSc2ccccc2)C1 (stereo not given) the result was MtTrpRS: -1.135%.
For O=C1CO[C@H]2CN(C3CCOCC3)C[C@H]2N1Cc1ccncc1 the result was CoaBC: -4.636%; MtTrpRS: 0.5311%.
For Cc1nc(C)n(C2CCCN(C(=O)c3ccc(O)nc3)C2)n1 (stereo not given) the result was CoaBC: 8.095%; MtTrpRS: -3.387%.
For COCCC(=O)NC1CCN(CC2(c3cccc(F)c3)CCCC2)CC1 the result was CoaBC: -0.8653%; MtTrpRS: -1.098%.
For CCCc1noc(CS(=O)(=O)c2cccc(OC)c2)n1 the result was CoaBC: 5.992%; MtTrpRS: -0.5202%.